What all share (test): cleaved PARP positive nuclei fraction relative to DMSO control; melanoma cells; higher = more apoptosis
What all share (settings): library dose: low library concentration; 72 h

The subject of assay [1] is MZ2-MEL.
The subject of assay [2] is MeWo.
The test system of assay [3] is RPMI7951.
Assay [4] concerns RVH-421.
In assay [5] the test system is SkMel28.
The subject of assay [6] is SkMel2.
In assay [7] the test system is SkMel30.
For assay [8], the system named is SkMel5.
The test system of assay [9] is UACC257.
The subject of assay [10] is UACC62.

Some of the results follow. Single values are uncertain, as repeats are few or missing.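 Imaging used 1,536-well plates; nuclei positive for cleaved PARP by antibody were divided by total DNA-stained nuclei to yield the apoptosis fraction. Doses for screening kept most cells viable, and cell lines differ markedly in resting and induced cleaved-PARP levels.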

The text below walks through data of the supplement of paper PMC4604168 (melanoma cell lines).

Consider `COc1ccc(C2=N[C@@H](c3ccc(Cl)cc3)[C@@H](c3ccc(Cl)cc3)N2C(=O)N2CCNC(=O)C2)c(OC(C)C)c1` [Nutlin-3] + Cc1ccc(NC(=O)c2cccc(N(C)C)c2)cc1NC(=O)c1ccc(O)cc1 [ZM336372] (first compound 0.1 µM, partner dose 2 µM), for which the “cleaved PARP positive nuclei fraction” value in [1] came out at 66%; in [2], 49.6%; in assay [3], 70.3%; in [4] it was 148%; in assay [5], 181%; in assay [6], 62.6%. Besides, the “cleaved PARP positive nuclei fraction” value in [7] amounted to 61.2%; in assay [8] it was 69.7%; in assay [9], 112%; in assay [10] it was 196%.
Regarding `NC1(c2ccc(-c3nc4ccn5c(=O)[nH]nc5c4cc3-c3ccccc3)cc2)CCC1` + CN(NC(=O)CC(=O)NN(C)C(=S)c1ccccc1)C(=S)c1ccccc1 [STA4783] (first compound 0.4 µM, partner dose 0.006 µM), the “cleaved PARP positive nuclei fraction” value turned out to be 156% in [1]; 61.2% in [2]; 53.5% in assay [3]; 99.7% in [4]; 157% in assay [5]; 16.4% in assay [6]. In addition, the “cleaved PARP positive nuclei fraction” value in assay [7] came to 67.2%; in [8] it was 211%; in assay [9], 32.6%; in assay [10] it was 85.2%.
Regarding `C[C@]1(O)C[C@@H](c2nc(-c3ccc4ccc(-c5ccccc5)nc4c3)c3c(N)nccn32)C1` + O=c1cc(-c2cccc3c2Sc2ccccc2S3)oc(N2CCOCC2)c1 [KU55933] (first compound 0.4 µM, partner dose 1 µM), the “cleaved PARP positive nuclei fraction” value in [1] turned out to be 128%; in assay [2], 88.6%; in assay [3], 39.1%; in assay [4], 44.3%; in assay [5] it was 249%; in [6], 107%. The “cleaved PARP positive nuclei fraction” value came out at 73.9% in assay [7], 84.2% in assay [8], 316% in assay [9] and 108% in assay [10].
Consider `CC(=O)O[C@@]12CO[C@@H]1C[C@H](O)[C@@]1(C)C(=O)[C@H](O)C3=C(C)[C@@H](OC(=O)[C@H](O)[C@@H](NC(=O)OC(C)(C)C)c4ccccc4)C[C@@](O)([C@@H](OC(=O)c4ccccc4)[C@H]21)C3(C)C` [Docetaxel] + CN(NC(=O)CC(=O)NN(C)C(=S)c1ccccc1)C(=S)c1ccccc1 [STA4783] (first compound 0.0001 µM, partner dose 0.006 µM), for which the “cleaved PARP positive nuclei fraction” value came to 895% in assay [1]; 1130% in assay [2]; 378% in assay [3]; 59.6% in [4]; 311% in assay [5]; 273% in assay [6]. The “cleaved PARP positive nuclei fraction” value in assay [7] worked out at 517%; in assay [8] it was 203%; in assay [9], 713%; in assay [10], 245%.
As to `CC(=O)O[C@@]12CO[C@@H]1C[C@H](O)[C@@]1(C)C(=O)[C@H](O)C3=C(C)[C@@H](OC(=O)[C@H](O)[C@@H](NC(=O)OC(C)(C)C)c4ccccc4)C[C@@](O)([C@@H](OC(=O)c4ccccc4)[C@H]21)C3(C)C` [Docetaxel] + c1cc(-c2cnn3cc(-c4ccc(OCCN5CCCCC5)cc4)cnc23)ccn1 [Dorsomorphin] (first compound 0.0001 µM, partner dose 0.4 µM), the “cleaved PARP positive nuclei fraction” value was 235% in assay [1]; 558% in assay [2]; 503% in [3]; 99.8% in assay [4]; 1480% in assay [5]; 223% in assay [6]. For the same compound, the “cleaved PARP positive nuclei fraction” value came to 591% in [7], 107% in assay [8], 734% in [9] and 491% in assay [10].
`CCCCCCCCc1ccc(CCC(N)(CO)CO)cc1` [fingolimod] + O=C1NC(=O)/C(=C/c2ccc(-c3ccc(F)cc3O)o2)S1 [AS252424] (first compound 2 µM, partner dose 1 µM): the “cleaved PARP positive nuclei fraction” value in assay [1] stood at 126%; in assay [2] it was 29.5%; in assay [3], 109%; in assay [4] it was 37.2%; in assay [5] it was 158%; in assay [6], 99.7%. Also, the “cleaved PARP positive nuclei fraction” value was determined as 42.9% in assay [7], 156% in [8], 166% in [9] and 251% in assay [10].
For `CN(c1ncccc1CNc1nc(Nc2ccc3c(c2)CC(=O)N3)ncc1C(F)(F)F)S(C)(=O)=O` + COc1cc(N2CCC(N3CCN(C)CC3)CC2)ccc1Nc1ncc(Cl)c(Nc2ccccc2S(=O)(=O)C(C)C)n1 [NVP-TAE684] (first compound 0.08 µM, partner dose 0.08 µM), the “cleaved PARP positive nuclei fraction” value in [1] stood at 230%; in [2], 225%; in assay [3], 44.9%; in assay [4], 262%; in assay [5], 352%; in assay [6], 105%. Further, the “cleaved PARP positive nuclei fraction” value in assay [7] came out at 37.5%; in assay [8] it was 180%; in assay [9], 285%; in assay [10], 109%.
With `C[C@@H](N)c1ccc(C(=O)Nc2ccnc3[nH]ccc23)cc1` + CC(C)CCN1c2nc(Nc3cc(F)c(O)c(F)c3)ncc2N(C)C(=O)C1C [BID1870] (first compound 0.4 µM, partner dose 0.2 µM), the “cleaved PARP positive nuclei fraction” value in assay [1] is 159%; in [2] it was 122%; in assay [3], 42.1%; in [4], 110%; in assay [5], 426%; in [6], 71.8%. In addition, the “cleaved PARP positive nuclei fraction” value was found to be 72.6% in assay [7], 66.3% in assay [8], 660% in [9] and 133% in assay [10].
With `Cn1cnc2c(F)c(Nc3ccc(Br)cc3Cl)c(C(=O)NOCCO)cc21` [selumetinib] + O=C(Nc1ccccc1)c1cc([N+](=O)[O-])ccc1Cl [GW9662] (first compound 0.015 µM, partner dose 2 µM), the “cleaved PARP positive nuclei fraction” value in assay [1] turned out to be 267%; in assay [2], 102%; in assay [3], 38.8%; in assay [4], 129%; in [5], 119%; in assay [6] it was 276%. In addition, the “cleaved PARP positive nuclei fraction” value in assay [7] was found to be 123%; in assay [8] it was 74.3%; in assay [9] it was 148%; in [10], 322%.
`C[C@@H](N)c1ccc(C(=O)Nc2ccnc3[nH]ccc23)cc1` + CO[C@@H]1[C@H](N(C)C(=O)c2ccccc2)C[C@H]2O[C@]1(C)n1c3ccccc3c3c4c(c5c6ccccc6n2c5c31)C(=O)NC4 [Midostaurin] (first compound 0.4 µM, partner dose 0.08 µM): the “cleaved PARP positive nuclei fraction” value in [1] stood at 189%; in [2], 422%; in assay [3], 166%; in [4], 141%; in [5], 106%; in [6] it was 224%. Also, the “cleaved PARP positive nuclei fraction” value is 55.7% in assay [7], 106% in [8], 124% in assay [9] and 161% in assay [10].
For `CCCCCCCCc1ccc(CCC(N)(CO)CO)cc1` [fingolimod] + COc1cc(Nc2ncc(F)c(Nc3ccc4c(n3)NC(=O)C(C)(C)O4)n2)cc(OC)c1OC [Tamatinib] (first compound 2 µM, partner dose 0.4 µM), the “cleaved PARP positive nuclei fraction” value was found to be 90.1% in assay [1]; 116% in [2]; 57.1% in assay [3]; 97.9% in assay [4]; 306% in [5]; 83.6% in assay [6]. The “cleaved PARP positive nuclei fraction” value in [7] is 73.7%; in [8], 62.6%; in assay [9], 180%; in assay [10], 194%.
Take `NC(=O)c1ccc(N(C(N)=O)c2c(F)cccc2F)nc1-c1ccc(F)cc1F` + CCCCCCCCCCCC1=C(O)C(=O)C=C(O)C1=O [Embelin] (first compound 0.4 µM, partner dose 1.2 µM): the “cleaved PARP positive nuclei fraction” value in assay [1] stood at 103%; in assay [2], 42.4%; in assay [3], 139%; in [4], 57.3%; in assay [5], 115%; in assay [6], 83%. Besides, the “cleaved PARP positive nuclei fraction” value was 188% in [7], 147% in assay [8], 103% in assay [9] and 151% in assay [10].
